The series in a line: in vitro. The settings on record: human.

Molecules are shown by their SMILES.

By IC50 is commonly meant the midpoint of a concentration-inhibition curve. Higher therefore signals a need for much substance. `CN[C@@H]1C[C@H]2O[C@@](C)([C@@H]1OC)n1c3ccccc3c3c4c(c5c6ccccc6n2c5c31)C(=O)NC4` [Staurosporine, reference compound]: the half-maximal inhibitory concentration (IC50) stood at 35.3 ± 1.93 µM.

These data come from paper PMC9848300, “Discovery of novel enasidenib analogues targeting inhibition of mutant isocitrate dehydrogenase 2 as antileukaemic agents” (Journal of Enzyme Inhibition and Medicinal Chemistry, 2023).
